## Results from one PubChem assay

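Plate-reader measure of the Venus reporter marking one vaccinia stage in infected cells (the cell line is not named here); read time unknown. The test concentration is not given here. Percent change in Venus reporter signal; lower (more negative) values mean stronger inhibition of that viral stage.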

Values are in %. The controls that fix the scale are not given here. Common to all entries: measured here: Venus reporter, other viral stage. This is a side read-out of the assay, for part of the compounds, not drawn at random.

compound	activity change (Venus) (%)
COc1cccc(C#Cc2cnc3c(c2)C(=O)N([C@@H](C)CO)C[C@H](C)[C@H](CN(C)C(=O)C2CCCCC2)O3)c1	-27.97
C[C@H](CO)N1C[C@H](C)[C@H](CN(C)Cc2ccc3c(c2)OCO3)OCCCC[C@H](C)Oc2ccc(NS(=O)(=O)c3ccc(F)cc3)cc2C1=O	-53.17
C[C@@H](NC(=O)C[C@H]1CC[C@H]2[C@@H](COC[C@H](O)CN2C(=O)Nc2cc(Cl)cc(Cl)c2)O1)c1ccccc1	-42.71
C[C@H](CO)N1C[C@H](C)[C@@H](CN(C)C(=O)Nc2cccc3ccccc23)Oc2c(cccc2N(C)C)C1=O	-78.94
C[C@H]1CN([C@@H](C)CO)S(=O)(=O)c2ccc(C3=CCCCC3)cc2O[C@@H]1CN(C)C(=O)C1CCCCC1	-46.47
O=C(C[C@@H]1CC[C@H]2[C@@H](COC[C@@H](O)CN2S(=O)(=O)c2ccc(Oc3ccccc3)cc2)O1)Nc1ccccc1	-32.51
C[C@@H]1CN([C@H](C)CO)S(=O)(=O)c2ccc(C#CCN(C)C)cc2O[C@H]1CN(C)Cc1ccc(F)cc1	-31.25
C[C@H](CO)N1C[C@H](C)[C@@H](CN(C)Cc2ccc(Cl)c(Cl)c2)Oc2ccc(NC(=O)Cc3ccccc3)cc2CC1=O	-53.45
Cc1noc(C)c1S(=O)(=O)Nc1ccc2c(c1)C(=O)N([C@H](C)CO)C[C@@H](C)[C@@H](CN(C)S(=O)(=O)c1ccc(F)cc1)OCCCC[C@@H](C)O2	-37.84
C[C@@H]1CCCCO[C@H](CN(C)C(=O)Cc2ccccc2)[C@@H](C)CN([C@@H](C)CO)C(=O)c2cc(NS(=O)(=O)c3ccc(Cl)cc3)ccc2O1	-54.33
C=CCN1C(=O)[C@@]2(O[C@@H](CCn3cc([C@H](O)c4ccccc4)nn3)[C@H]([Si](C)(C)c3ccc(OC)cc3)[C@H]2C)c2cc(N3CCOC3=O)ccc21	-44.73
CCCC#Cc1ccc2c(c1)O[C@@H](CN(C)C(=O)Nc1ccc(OC)cc1)[C@H](C)CN([C@@H](C)CO)S2(=O)=O	-30.12
Cn1cnc(S(=O)(=O)N2CCCCN3[C@H](C2)[C@@H](c2ccc(C#CC4CCCC4)cc2)[C@@H]3CO)c1	-23.42
O=C(Nc1ccccc1)N1CCCCN2[C@H](CO)[C@H](c3ccc(C#CC4CC4)cc3)[C@H]2C1	-66.6
Cc1ccc(-c2ccc([C@H]3[C@@H](CO)N4C(=O)CN(C(=O)c5ccc(F)cc5)C[C@@H]34)cc2)cc1	-58.69
COc1ccc(CN(C)C[C@@H]2OCCCC[C@H](C)Oc3ccc(NS(=O)(=O)c4ccc(F)cc4)cc3C(=O)N([C@@H](C)CO)C[C@H]2C)cc1	-36.92
C[C@@H]1CCCCO[C@H](CN(C)Cc2ccc(Cl)c(Cl)c2)[C@@H](C)CN([C@@H](C)CO)C(=O)c2cc(NS(=O)(=O)c3cn(C)cn3)ccc2O1	-45.81
CC(C)CC#Cc1ccc2c(c1)O[C@H](CN(C)C(=O)c1cccc(F)c1)[C@@H](C)CN([C@H](C)CO)S2(=O)=O	-50.16
O=C(NC1CCCC1)N1CCCCN2[C@H](C1)[C@H](c1ccc(-c3ccccc3)cc1)[C@@H]2CO	-34.1
O=C(C1CCOCC1)N1CC(=O)N2[C@H](C1)[C@H](c1ccc(C#Cc3cccc(F)c3)cc1)[C@@H]2CO	-71.86
O=C(Cc1ccccn1)N1CC(=O)N2[C@H](CO)[C@H](c3ccc(C#CC4CCCCC4)cc3)[C@H]2C1	-22.71
C[C@H](CO)N1C[C@H](C)[C@@H](CN(C)C(=O)c2ccccc2F)Oc2ncc(C#Cc3cccc(F)c3)cc2C1=O	-36.7
COc1ccc(CN(C)C[C@H]2Oc3ccc(NC(=O)Nc4ccc(C(F)(F)F)cc4)cc3C(=O)N([C@H](C)CO)C[C@@H]2C)cc1	-42.73
N#Cc1cccc(-c2ccc([C@@H]3[C@@H](CO)N4CCCCN(Cc5ccccc5F)C[C@@H]34)cc2)c1	-27.25
CO[C@@H]1CN(C)C(=O)c2cc(NS(=O)(=O)c3cccc(F)c3)ccc2OC[C@H](C)N(Cc2cc(F)ccc2F)C[C@H]1C	-51.19
CC(C)C#Cc1ccc([C@@H]2[C@H](C#N)N(C(=O)c3cccc(F)c3)[C@H]2CO)cc1	-38.79
C[C@@H]1CN([C@@H](C)CO)S(=O)(=O)c2ccc(C#Cc3ccc(F)cc3)cc2O[C@@H]1CN(C)S(=O)(=O)c1cn(C)cn1	-80.61
COc1ccc(-c2cnc3c(c2)C(=O)N([C@H](C)CO)C[C@H](C)[C@H](CN(C)C(=O)Nc2ccc(F)cc2)O3)cc1	-36.58
O=C(Cc1ccccn1)N1CC(=O)N2[C@H](CO)[C@@H](c3ccc(C#CC4CCCCC4)cc3)[C@@H]2C1	-35.45
CCCNC(=O)N1CC2(CN(CC3CCCC3)C2)c2c(n(C)c3cc(OC)ccc23)[C@H]1CO	-32.71
Cc1ccc(S(=O)(=O)Nc2ccc3c(c2)CC(=O)N([C@H](C)CO)C[C@@H](C)[C@H](CN(C)Cc2ccc(Cl)c(Cl)c2)O3)cc1	-42.48
O=C1CN(S(=O)(=O)Cc2ccccc2)C[C@@H]2[C@@H](c3ccc(C#Cc4cccnc4)cc3)[C@@H](CO)N12	-60.51
CO[C@@H](C(=O)N(C)C[C@H]1OCc2ccccc2-c2c(n(C)c3ccccc23)C(=O)N([C@@H](C)CO)C[C@@H]1C)c1ccccc1	-28.25
CC(C)C#Cc1ccc([C@@H]2[C@H](CO)N3CCCCN(S(=O)(=O)Cc4ccccc4)C[C@@H]23)cc1	-58.26
C[C@H](CO)N1C[C@H](C)[C@H](CN(C)CC2CCCCC2)Oc2ccc(NC(=O)Nc3ccc(F)cc3)cc2CC1=O	-29.9
COc1ccc(CN(C)C[C@H]2OCCCC[C@H](C)Oc3ccc(NS(=O)(=O)c4ccc(F)cc4)cc3C(=O)N([C@@H](C)CO)C[C@H]2C)cc1	-54.52
C[C@H]1CN([C@@H](C)CO)C(=O)c2c(c3ccccc3n2C)-c2ccccc2CO[C@@H]1CN(C)C(=O)Nc1ccc(-c2ccccc2)cc1	-28.53
CCCC#Cc1ccc([C@H]2[C@H]3CN(C(=O)c4ccc5c(c4)OCO5)CCCCN3[C@H]2CO)cc1	-45.56

The first 4 entries again:

* COc1cccc(C#Cc2cnc3c(c2)C(=O)N([C@@H](C)CO)C[C@H](C)[C@H](CN(C)C(=O)C2CCCCC2)O3)c1 : activity change (Venus) -27.97%
* C[C@H](CO)N1C[C@H](C)[C@H](CN(C)Cc2ccc3c(c2)OCO3)OCCCC[C@H](C)Oc2ccc(NS(=O)(=O)c3ccc(F)cc3)cc2C1=O : activity change (Venus) -53.17%
* C[C@@H](NC(=O)C[C@H]1CC[C@H]2[C@@H](COC[C@H](O)CN2C(=O)Nc2cc(Cl)cc(Cl)c2)O1)c1ccccc1 : activity change (Venus) -42.71%
* C[C@H](CO)N1C[C@H](C)[C@@H](CN(C)C(=O)Nc2cccc3ccccc23)Oc2c(cccc2N(C)C)C1=O : activity change (Venus) -78.94%

Data taken from PubChem BioAssay AID1053133, deposited by Broad Institute (2014).